Source: patent US6270957A, “Non-Imuunosuppressive cyclosporins and their use in the prevention and treatment of HIV infection” (Wisconsin Alumni Research Foundation, priority 1999, dated 2001)
Not every detail of the peptide structures is certain; ends, links or a residue may be inferred. Square brackets hold non-standard residues; d marks the D form. Side chains are listed from the residue outwards. Peptide text beside a SMILES is read from it. * marks the point of attachment. X1 = NC(=O)C[C@H](NC(=O)OCc1ccccc1)C(=O)N[C@@H](Cc1ccccc1)[C@@H](O)CN1CCC[C@H]1C(=O)*; NMeLeu(3R-OH) = CN[C@H](C(=O)O)[C@H](O)C(C)C; NMeL = CN[C@@H](CC(C)C)C(=O)O; NMeV = CN[C@H](C(=O)O)C(C)C; dNMeS = CN[C@H](CO)C(=O)O; Abu = CC[C@H](N)C(=O)O

Amino acid sequences for entries named in this document (tags omitted).
UniProt P62937, whole entry: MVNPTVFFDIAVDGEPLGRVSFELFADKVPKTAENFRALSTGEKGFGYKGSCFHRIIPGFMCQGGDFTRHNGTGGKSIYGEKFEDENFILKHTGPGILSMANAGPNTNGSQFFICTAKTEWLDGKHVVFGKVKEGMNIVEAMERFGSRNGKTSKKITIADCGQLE

Biological target: T1, cyclophilin and HIV protease (UniProt P04585+P62937)
T1 construct: HIV protease is an aspartic protease that cleaves the immature viral protein gag-pol into mature structural proteins and enzymes
Assay: Ultracentrifugation of the conjugate with cyclophilin and HIV protease
Assay type: binding
Conditions: preliminary ultracentrifugation; the enzymes alone are 18 and 22 KDa

SMILES: CC[C@@H]1NC(=O)[C@H]([C@H](O)C(C)C)N(C)C(=O)[C@H](C(C)C)N(C)C(=O)[C@H](CC(C)C)N(C)C(=O)[C@H](CC(C)C)N(C)C(=O)[C@@H](C)NC(=O)[C@H](CCCCNC(=O)[C@H](Cc2ccccc2)NC(=O)[C@@H](NC(=O)[C@@H]2CCCN2C[C@H](O)[C@H](Cc2ccccc2)NC(=O)[C@H](CC(N)=O)NC(=O)OCc2ccccc2)[C@@H](C)CC)NC(=O)[C@H](CC(C)C)N(C)C(=O)[C@H](C(C)C)NC(=O)[C@H](CC(C)C)N(C)C(=O)[C@@H](CO)N(C)C1=O [Compound 2.8] (cyclo([Abu][dNMeS][NMeL]V[NMeL]K([Phe-Ile-X1])[dA][NMeL][NMeL][NMeV][NMeLeu(3R-OH)]))
- Size of the complex formed (simultaneous binding to cyclophilin and HIV protease): 30 KDa
